At least one structure is not confirmed: it was looked up by name or label, or the drawing left a doubt.
Test system: proteasome
Assay: Proteasome inhibition, fluorescent substrate kit
Assay type: biochemical
Details: % control vs proteasome activity without inhibitor or test sample; test concentration given as 50 mg/ml
Experimental: The ability of each of the ingredients in the compositions of the present invention to inhibit proteasome activity was measured. One of ordinary skill in the art will appreciate that there are numerous methods for measuring the ability of a substance to inhibit proteasome activity. One example of such a method is set forth below and described in U.S. Pat. No. 6,410,512, the entire contents of which are incorporated by reference herein.
For example, to measure the ability of a compound to inhibit proteasome activity, 100 mg of each test sample in neat form was measured. A 50 mg/ml total extract of the sample was then prepared by sequential addition of DMSO:ethanol:water in a ratio of 5:3:2. One of ordinary skill in the art will understand that other amounts of sample may be used. For example, to prepare a 100 mg sample, 1 mL DMSO, 0.6 ml ethanol, and 0.4 ml water are mixed together.
This solution is extensively mixed by vortexing and incubating for 10 minutes in a sonic water bath. […]
Inhibition of proteasome activity may be assayed using a proteasome kit that is commercially available, for example from Boston Biochem (Boston, Mass.). […] The fluorescent proteasome substrate is then added and cleavage of the substrate by the proteasome is monitored using a fluorescence plate reader. Data are expressed as % control compared to proteasome activity without any inhibitor or test sample added. […]

SMILES: O=c1cc(-c2ccc(O)c(-c3c(O)cc(O)c4c(=O)cc(-c5ccc(O)cc5)oc34)c2)oc2cc(O)cc(O)c12 [Amentoflavone]
- Average % Proteasome Activity: 24.5%
